Experimental data as given in paper PMC7819943, “Rice protein-binding microarrays: a tool to detect cis-acting elements near promoter regions in rice”.
The list shows a part of the results.

Biological target: T1, OsSMF1 (Oryza sativa, UniProt Q6ZLB0 1-436)
T1 sequence: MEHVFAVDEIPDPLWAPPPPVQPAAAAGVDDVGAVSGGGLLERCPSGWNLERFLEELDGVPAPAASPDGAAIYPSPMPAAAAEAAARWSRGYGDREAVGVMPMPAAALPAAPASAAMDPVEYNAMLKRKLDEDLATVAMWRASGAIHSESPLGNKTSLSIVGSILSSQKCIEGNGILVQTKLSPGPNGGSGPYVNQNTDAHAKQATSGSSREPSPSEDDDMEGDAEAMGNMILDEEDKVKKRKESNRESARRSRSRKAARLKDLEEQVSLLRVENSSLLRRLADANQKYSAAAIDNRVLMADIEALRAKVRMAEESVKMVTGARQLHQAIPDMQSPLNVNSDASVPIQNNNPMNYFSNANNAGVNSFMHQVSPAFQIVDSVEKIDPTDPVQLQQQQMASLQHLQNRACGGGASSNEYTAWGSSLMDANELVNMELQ
Assay: protein-binding microarray (RPBM); PBS, 2% BSA, 51.3 ng/ul salmon testes DNA, 50 uM zinc acetate, 200 nM TF, 25 C, 1 h; high values mean tight binding
Conditions: protein: recombinant; tags: N-terminal polyhistidine and DsRed monomer fusion (pET32a); chain copies: 2; label: CyDye5-dUTP incorporated in the synthesized complementary strand; 3' TTTTT single-stranded linker to array surface; dsDNA, one strand shown
Procedure, shortened: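 The binding signal is fluorescence intensity per feature, in arbitrary units, read on an Axon 4000B scanner. Polyhistidine- and DsRed-tagged transcription factors (N-terminal fusions) from E. coli BL21-CodonPlus were purified on Ni–NTA and applied at 200 nM for 1 h at 25 °C to a double-stranded, BSA-blocked custom Agilent array in buffer with 50 µM zinc acetate.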

Question: How did the binding signal turn out when “TATTTAACGGTTTCTTTTACCCGTAACGAAGCACGTGTATCGGAGTCACCTAGTGCAG” was run?
Answer: 4170 fluorescence intensity (a.u.)

Question: With “ACACCGAGACCGCTGGCTTCTTCTGCTTCTGTGGCAGCGGCGGAGTCACCTAGTGCAG” as the sequence, how does the binding signal read?
Answer: 26700 fluorescence intensity (a.u.)

Question: Which binding signal does the source give for “GCGGTGGAGAGATGAAGCCAGGAGGACGTCAGCGTCGGCGCGGAGTCACCTAGTGCAG” here?
Answer: 6400 fluorescence intensity (a.u.)

Question: With “TGGCTTTCTGCTACCCTTTTGTAAGTTGTAACTTTCTTGACGGAGTCACCTAGTGCAG” as the sequence, how does the binding signal read?
Answer: 17100 fluorescence intensity (a.u.)

Question: “GTAGTATACGCCAGACGTGAGCTCTCTTCCTTCCTCGTCTCGGAGTCACCTAGTGCAG” was tested. Which binding signal did it give?
Answer: 14400 fluorescence intensity (a.u.)

Question: For “AAACGTAATCTAATAACAAAACAAATTACAGAACTGTAAACGGAGTCACCTAGTGCAG”, which binding signal is on record?
Answer: 11100 fluorescence intensity (a.u.)

Question: How did the binding signal turn out when “CGCCGCTGACGCCGTGCCGTACCTTCCTCTGCCGCTGCCACGGAGTCACCTAGTGCAG” was run?
Answer: 5060 fluorescence intensity (a.u.)

Question: For “CTCCCACCTCGCGCCATCGGATTCCACCTTCCCAGGTCTCCGGAGTCACCTAGTGCAG”, which binding signal is on record?
Answer: 13200 fluorescence intensity (a.u.)

Question: How did the binding signal turn out when “ACCTTGTGTCTGCACCATCCGTTTCCGATCGACCAGATCCCGGAGTCACCTAGTGCAG” was run?
Answer: 3990 fluorescence intensity (a.u.)

Question: Which binding signal does the source give for “CCAACACGTCACGCATCTGGGCTTTCCTTCCTCCTCCTCCCGGAGTCACCTAGTGCAG” here?
Answer: 14100 fluorescence intensity (a.u.)

Question: How did the binding signal turn out when “CCACGACTTTTCTCGTCGTCACATCAGCGTCTCCTCTTCTCGGAGTCACCTAGTGCAG” was run?
Answer: 3770 fluorescence intensity (a.u.)

Question: For “TCACAGCAGCGCAACGTGTCATGCCGCCCGGTGGGCCCCGCGGAGTCACCTAGTGCAG”, which binding signal is on record?
Answer: 4230 fluorescence intensity (a.u.)

Question: “CCCTCGCTCCGCCGTCTCCCCTCGCCGCCGTTCCCCTTCCCGGAGTCACCTAGTGCAG” was tested. Which binding signal did it give?
Answer: 3230 fluorescence intensity (a.u.)

Question: Which binding signal does the source give for “AGCCTGCGCCGCGAACTCGGGGCCCTCCTCGAGCAGGTGGCGGAGTCACCTAGTGCAG” here?
Answer: 3280 fluorescence intensity (a.u.)

Question: For “CTCTTTCATAGTCCATGAGGTCTGCAGCTAGCTGACCAGACGGAGTCACCTAGTGCAG”, which binding signal is on record?
Answer: 4420 fluorescence intensity (a.u.)

Question: “TGCACTTTGCGTGGACTTAAACATGCGTCAACACGTGTGTCGGAGTCACCTAGTGCAG” was tested. Which binding signal did it give?
Answer: 6890 fluorescence intensity (a.u.)

Question: With “GTGGTGTTTGAAATCATGAGTCATCACTCATCAAGGCTGCCGGAGTCACCTAGTGCAG” as the sequence, how does the binding signal read?
Answer: 7430 fluorescence intensity (a.u.)

Question: “AAGATGGACAACCCTCAATAGATTGGGCTATGGGCTTGTTCGGAGTCACCTAGTGCAG” was tested. Which binding signal did it give?
Answer: 33900 fluorescence intensity (a.u.)

Question: For “TCAGTCTCGTGTATATCCTAGCACCGACGATCCCCATACTCGGAGTCACCTAGTGCAG”, which binding signal is on record?
Answer: 34900 fluorescence intensity (a.u.)

Question: “GGGCAAGTGGGCTGACATAGGCATTTGCTCCTTCCCCTAACGGAGTCACCTAGTGCAG” was tested. Which binding signal did it give?
Answer: 3820 fluorescence intensity (a.u.)

Question: “GGAGTAGTATTTTGAGTCGCCGTCACCGTCGGCTCCCTCACGGAGTCACCTAGTGCAG” was tested. Which binding signal did it give?
Answer: 4000 fluorescence intensity (a.u.)

Question: How did the binding signal turn out when “CAAAAGCATCTTGGAGGAGACACAGTCAGTTGGCCATACTCGGAGTCACCTAGTGCAG” was run?
Answer: 3600 fluorescence intensity (a.u.)

Question: For “CCCGCTCGCCGCCACCGTGTCACGCCGGCAGCCTCAGGTTCGGAGTCACCTAGTGCAG”, which binding signal is on record?
Answer: 4780 fluorescence intensity (a.u.)

Question: Which binding signal does the source give for “TGTGTGCGGCCTGTGGGCTGGCACGACACGGCCCGGTGCGCGGAGTCACCTAGTGCAG” here?
Answer: 3340 fluorescence intensity (a.u.)

Question: With “CATCTGCAGACATCCTGACATCCCCTCGGGGCAGATGGCGCGGAGTCACCTAGTGCAG” as the sequence, how does the binding signal read?
Answer: 5740 fluorescence intensity (a.u.)

Question: With “TGCTGGCGCCCTCCTATGCCACGTCAGCTATGCGATGCCACGGAGTCACCTAGTGCAG” as the sequence, how does the binding signal read?
Answer: 21500 fluorescence intensity (a.u.)

Question: For “TGTTGCATTGTCATATGTTTGGGTGGCCATGCATGAATCACGGAGTCACCTAGTGCAG”, which binding signal is on record?
Answer: 5390 fluorescence intensity (a.u.)

Question: Which binding signal does the source give for “TTAATGTGTGTGAATGACACGGATCCCACGTATATGTTTTCGGAGTCACCTAGTGCAG” here?
Answer: 6180 fluorescence intensity (a.u.)

Question: “AATATGGAACATCAAAATCTGACACACGATTTCTTAAGGCCGGAGTCACCTAGTGCAG” was tested. Which binding signal did it give?
Answer: 4070 fluorescence intensity (a.u.)

Question: How did the binding signal turn out when “GGCCCAAACAAGTCCTTCCCGTAATCGCGTTCGTCATCATCGGAGTCACCTAGTGCAG” was run?
Answer: 5450 fluorescence intensity (a.u.)

Question: How did the binding signal turn out when “ATCCTATCCCATATTAATTATTCTTCGAATTAGATTCGAGCGGAGTCACCTAGTGCAG” was run?
Answer: 15900 fluorescence intensity (a.u.)

Question: With “TACTGAAACTTGTTGCTGATTATATCTGACCCAAGTGGTTCGGAGTCACCTAGTGCAG” as the sequence, how does the binding signal read?
Answer: 3320 fluorescence intensity (a.u.)

Question: How did the binding signal turn out when “AAACAAGCCCTTATCTTTCCAACTCACTCTCGCGTTCGCGCGGAGTCACCTAGTGCAG” was run?
Answer: 4190 fluorescence intensity (a.u.)

Question: For “CGCGGGTTGTCACGTCGATACAGCTCCCTCGTCGAACTGGCGGAGTCACCTAGTGCAG”, which binding signal is on record?
Answer: 4000 fluorescence intensity (a.u.)

Question: “CGCGCGCGCGAGTTCCCCGAGATCCGCGAGATCTCCGTCGCGGAGTCACCTAGTGCAG” was tested. Which binding signal did it give?
Answer: 3190 fluorescence intensity (a.u.)

Question: For “TTTAGATGGCGGTTTTGGCTGACGTGGCACATATGTGGCTCGGAGTCACCTAGTGCAG”, which binding signal is on record?
Answer: 33100 fluorescence intensity (a.u.)

Question: With “ACCTCCCGGAGGAGGAGACCACGCCAAGCGTGGACGTGGACGGAGTCACCTAGTGCAG” as the sequence, how does the binding signal read?
Answer: 4010 fluorescence intensity (a.u.)

Question: “AAAATACAATGTGATTTCAAGCTACATTCTAAGCCAAAGCCGGAGTCACCTAGTGCAG” was tested. Which binding signal did it give?
Answer: 3200 fluorescence intensity (a.u.)

Question: Which binding signal does the source give for “CGGGTAAATAAACCAGCAGCTGCACGTTAGCACGTACGCCCGGAGTCACCTAGTGCAG” here?
Answer: 4050 fluorescence intensity (a.u.)

Question: For “CGTGAGATTTGGCTGGGGAGTGGTGGTGGTGCGCCGCGGGCGGAGTCACCTAGTGCAG”, which binding signal is on record?
Answer: 3440 fluorescence intensity (a.u.)

Question: Which binding signal does the source give for “GCGTGCTTTAGTTGGTGTCAACAATGAATTGTCAAAGCCACGGAGTCACCTAGTGCAG” here?
Answer: 3440 fluorescence intensity (a.u.)

Question: For “CGAGCCCCGCGAGAAACAGCTATCCACGTCATCCGCGGCGCGGAGTCACCTAGTGCAG”, which binding signal is on record?
Answer: 20900 fluorescence intensity (a.u.)
